{"source": "patent US6607711B2", "about": "“Mouth hygienic composition for the treatment of halitosis” (priority 1997, dated 2003)", "experiment": "Organoleptic qualities (taste) of zinc compounds", "data": [{"substance": "Zinc gluconate", "values": [{"measurement": "organoleptic qualities / taste", "result": "very poor"}]}]}
